# PubChem BioAssay AID200 (DTP/NCI, 2004)
# The list shows only some results of the screen, not a fair sample: it is rich in T/C values a quarter to a half above the control, in often repeated tests (any T/C) and in doses without a T/C. Other doses and runs of a compound stand elsewhere. T/C: endpoint of the treated group in % of that of the vehicle group. Some doses have a count of surviving animals in place of a T/C: the source files T/C as zero there, which appears to mark a toxic dose or a test without result, not a measured value. Some survivor counts are full or nearly so, which does not show that the dose was tolerated: survival well below the control is almost never listed, so the zero probably covers shortened survival too. Survivors were counted at the toxicity check, usually on the fifth day, unless a day is given; later deaths do not show. Schedule codes are those of the source, taken here to give the interval after Q, in days (D) or hours (H), and the number of doses after X. Additions like (4×) count equal records among those shown. Some doses were run more than once; the values are given in rising order. Where survival is the endpoint, this PubChem deposit counts one and a half times the control or more as active, and values a quarter to a half above the control carry no call in these data; other NCI protocols may use other cut-offs. Some T/C values carry the count of animals alive at the toxicity check (mostly the fifth day); without a count, all were alive then. Where a SMILES comes first, the peptide text is derived from it. Bridges are numbered along the chain shown (N, C = ends). [ ]: non-standard residue; d: D form. The star is where a group is joined. ξ: configuration not given here. Cbz = O=C(OCc1ccccc1)*; OBn = c1ccc(CO*)cc1; Bn = c1ccc(C*)cc1; ξC = NC(CS)C(=O)O
# Tested on: B6C3F1 mice, B16 melanoma ip, median survival T/C
# Assay: NCI In Vivo Anticancer Drug Screen. Data for tumor model B16 Melanoma (intraperitoneal) in B6C3F1 mice
# Conditions: T/C endpoint: median survival time, schedule: Q01DX009 (ip), higher T/C = longer survival
# How it was run: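 Transplantable tumor in mice; treated vs vehicle control groups; survival or tumor size measured; value = T/C ratio.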
# [1] = dose: 80.0 micrograms/kg/injection, vehicle: saline
# [2] = dose: 160.0 micrograms/kg/injection, vehicle: saline
# [3] = dose: 400.0 mg/kg/injection, vehicle: saline with Tween-80
# [4] = dose: 400.0 mg/kg/injection, vehicle: saline
# [5] = dose: 5.0 mg/kg/injection, vehicle: Klucel (hydroxypropylcellulose) (HPC)
# [6] = dose: 100.0 mg/kg/injection, vehicle: saline with Tween-80
# [7] = dose: 200.0 mg/kg/injection, vehicle: saline with Tween-80
# [8] = dose: 50.0 mg/kg/injection, vehicle: Klucel (hydroxypropylcellulose) (HPC)
# [9] = dose: 100.0 mg/kg/injection, vehicle: Klucel (hydroxypropylcellulose) (HPC)
# [10] = dose: 0.5 mg/kg/injection, vehicle: saline
# [11] = dose: 1.0 mg/kg/injection, vehicle: saline
compound,measurement,setting,value
CN(C)CCCNc1c2ccccc2nc2cccc([N+](=O)[O-])c12,T/C,"dose: 10.0 micrograms/kg/injection, vehicle: saline","99 [8 of 10 alive], 101 (2×), 105, 108, 109 % of control"
same,T/C,"dose: 20.0 micrograms/kg/injection, vehicle: saline","98, 104, 105, 105 [9 of 10 alive], 108 % of control (2×)"
same,T/C,"dose: 40.0 micrograms/kg/injection, vehicle: saline","96, 96 [9 of 10 alive], 105, 106, 111, 123 % of control"
same,T/C,[1],"86 [9 of 10 alive], 94, 97, 98, 109 % of control"
same,survivor count,[1],10 of 10
same,T/C,[2],90 and 105 % of control
same,survivor count,[2],9 of 10 and 10 of 10
Nc1ccc2ccc(N)cc2c1,survivor count,[3],6 of 10
CN(C)[C@@H]1C(=O)C(C(N)=O)=C(O)[C@@]2(O)C(=O)C3=C(O)c4c(O)ccc(Cl)c4[C@@](C)(O)[C@H]3C[C@@H]12,survivor count,[4],2 of 10
same,survivor count,"dose: 400.0 mg/kg/injection, vehicle: water",4 of 10
COc1cc2c(c(OC)c1O)-c1ccc(OC)c(=O)cc1[C@@H](NC(=O)C(F)(F)F)CC2,T/C,"dose: 0.54 mg/kg/injection, vehicle: Klucel (hydroxypropylcellulose) (HPC)",130 % of control
same,T/C,"dose: 0.9 mg/kg/injection, vehicle: Klucel (hydroxypropylcellulose) (HPC)",135 % of control
same,T/C,"dose: 1.25 mg/kg/injection, vehicle: Klucel (hydroxypropylcellulose) (HPC)",132 % of control
same,T/C,"dose: 1.5 mg/kg/injection, vehicle: Klucel (hydroxypropylcellulose) (HPC)",137 % of control
same,T/C,"dose: 2.5 mg/kg/injection, vehicle: Klucel (hydroxypropylcellulose) (HPC)",134 and 137 % of control
same,survivor count,[5],5 of 10 and 10 of 10
same,survivor count,"dose: 10.0 mg/kg/injection, vehicle: Klucel (hydroxypropylcellulose) (HPC)",2 of 10 and 10 of 10
Clc1ccc2c(Cl)ncnc2c1,survivor count,[6],10 of 10
same,survivor count,[7],4 of 10
CC(O)CNCCNc1ccc(NCCNCC(C)O)c2c1C(=O)c1c(O)ccc(O)c1C2=O (stereo not given),T/C,"dose: 0.25 mg/kg/injection, vehicle: distilled water + Tween-80",138 % of control
same,T/C,"dose: 0.5 mg/kg/injection, vehicle: distilled water + Tween-80",149 % of control
CCC(C)C1NC(=O)C(CC(C)C)NC(=O)C(C(C)C)NC(=O)C2CSSCC(NC1=O)C(=O)N2 (stereo not given) (cyclo(CCVLI); disulfide 1-2; configuration not given here),survivor count,"dose: 250.0 micrograms/kg/injection, vehicle: Klucel (hydroxypropylcellulose) (HPC)",9 of 10
CSCCC(NC(=O)c1ccccc1)C(=O)O (stereo not given),survivor count,[6],10 of 10
same,survivor count,[7],9 of 10
same,survivor count,"dose: 200.0 mg/kg/injection, vehicle: saline",10 of 10
same,survivor count,[3],9 of 10
same,survivor count,[4],10 of 10
O=c1[nH]cccc1O,survivor count,"dose: 512.0 mg/kg/injection, vehicle: saline with Tween-80",7 of 10
O=S1(=O)CS(=O)(=O)OCCO1,T/C,"dose: 6.25 mg/kg/injection, vehicle: Klucel (hydroxypropylcellulose) (HPC)",148 % of control
same,survivor count,[8],6 of 8
same,survivor count,[9],3 of 10
O=C(CNC(=O)C(CSCc1ccccc1)NC(=O)OCc1ccccc1)NCC(=O)OCc1ccccc1 (stereo not drawn) (Cbz-[ξC](Bn)-Gly-Gly-OBn),survivor count,[8],10 of 10
C=Cc1cc(OC)c2c(c1)c(=O)oc1c2cc(OC)c2c(O)ccc(C3OC(C)C(O)C(C)(O)C3O)c21 (stereo not given),T/C,"dose: 20.0 mg/kg/injection, vehicle: DMSO",139 % of control
CC[C@]1(O)C[C@H]2CN(CCc3c([nH]c4ccccc34)[C@@](C(=O)OC)(c3cc4c(cc3OC)N(C=O)[C@H]3[C@@](O)(C(=O)OC)[C@H](OC(C)=O)[C@]5(CC)C=CCN6CC[C@]43[C@@H]65)C2)C1,T/C,"dose: 0.01 mg/kg/injection, vehicle: saline",138 % of control
same,T/C,"dose: 0.03 mg/kg/injection, vehicle: saline",132 % of control
same,T/C,"dose: 0.06 mg/kg/injection, vehicle: saline",145 % of control
same,survivor count,"dose: 0.06 mg/kg/injection, vehicle: water",10 of 10
same,survivor count,[10],9 of 10
same,survivor count,"dose: 0.5 mg/kg/injection, vehicle: water",10 of 10 (2×)
same,survivor count,[11],4 of 10
same,survivor count,"dose: 1.0 mg/kg/injection, vehicle: water",8 of 10 and 9 of 10
same,survivor count,"dose: 2.0 mg/kg/injection, vehicle: water",4 of 10 and 7 of 10
same,survivor count,"dose: 4.0 mg/kg/injection, vehicle: water",0 of 10
same,T/C,"dose: 15.63 micrograms/kg/injection, vehicle: water",147 % of control
same,survivor count,"dose: 500.0 micrograms/kg/injection, vehicle: water",10 of 10
same,survivor count,"dose: 1000.0 micrograms/kg/injection, vehicle: water",4 of 10
O=C1c2ccccc2CCC1(Br)Br,survivor count,[5],7 of 7
CSCS(=O)C[C@H](CO)NC(=O)/C=C/c1c(C)[nH]c(=O)[nH]c1=O (stereo not given in full),survivor count,[10],9 of 10
same,survivor count,[11],7 of 10
Nc1nnc[se]1,T/C,"dose: 50.0 mg/kg/injection, vehicle: saline with Tween-80",127 % of control
same,survivor count,[6],8 of 10 and 10 of 10
C=CCOc1cc2c(cc1C(C)c1ccc(OC)cc1)OCO2 (stereo not given),T/C,[9],127 % of control
same,survivor count,"dose: 200.0 mg/kg/injection, vehicle: Klucel (hydroxypropylcellulose) (HPC)",10 of 10
same,survivor count,"dose: 400.0 mg/kg/injection, vehicle: Klucel (hydroxypropylcellulose) (HPC)",6 of 10 and 10 of 10
same,survivor count,"dose: 800.0 mg/kg/injection, vehicle: Klucel (hydroxypropylcellulose) (HPC)",8 of 10
C(=C\c1nc2ccccc2[nH]1)/c1nc2ccccc2[nH]1,survivor count,[6],10 of 10
CCC1CC2CN(CCc3c([nH]c4ccccc34)C(C(=O)OC)(c3cc4c(cc3OC)N(C)C3C(O)(C(=O)OC)C(OC(C)=O)C5(CC)C=CCN6CCC43C65)C2)C1 (stereo not given),T/C,"dose: 0.25 mg/kg/injection, vehicle: saline",143 % of control
same,T/C,"dose: 0.25 mg/kg/injection, vehicle: suspension in saline",143 % of control
same,T/C,"dose: 0.5 mg/kg/injection, vehicle: suspension in saline",148 % of control
same,T/C,"dose: 1.0 mg/kg/injection, vehicle: suspension in saline",138 % of control
NC(CC(=O)CCl)C(=O)O (stereo not given),T/C,"dose: 25.0 mg/kg/injection, vehicle: Klucel (hydroxypropylcellulose) (HPC)",134 % of control
same,survivor count,[8],9 of 10
CCCC(C(=O)OCCN1CCCC12CCCCC2)C1CCCC1 (stereo not given),survivor count,"dose: 100.0 mg/kg/injection, vehicle: saline",10 of 10
COc1ccc2c(c1O)-c1cccc3c1[C@@H](C2)N(CCCl)CC3,survivor count,"dose: 16.0 mg/kg/injection, vehicle: Klucel (hydroxypropylcellulose) (HPC)",0 of 10 and 4 of 10
same,survivor count,"dose: 32.0 mg/kg/injection, vehicle: Klucel (hydroxypropylcellulose) (HPC)",0 of 10 and 1 of 10
